Paper PMC11727142

Protein sequences, listed by entry. Tags and fused reporters are not part of them. Residues count along the entry.
UniProt Q16610, residues 20-540: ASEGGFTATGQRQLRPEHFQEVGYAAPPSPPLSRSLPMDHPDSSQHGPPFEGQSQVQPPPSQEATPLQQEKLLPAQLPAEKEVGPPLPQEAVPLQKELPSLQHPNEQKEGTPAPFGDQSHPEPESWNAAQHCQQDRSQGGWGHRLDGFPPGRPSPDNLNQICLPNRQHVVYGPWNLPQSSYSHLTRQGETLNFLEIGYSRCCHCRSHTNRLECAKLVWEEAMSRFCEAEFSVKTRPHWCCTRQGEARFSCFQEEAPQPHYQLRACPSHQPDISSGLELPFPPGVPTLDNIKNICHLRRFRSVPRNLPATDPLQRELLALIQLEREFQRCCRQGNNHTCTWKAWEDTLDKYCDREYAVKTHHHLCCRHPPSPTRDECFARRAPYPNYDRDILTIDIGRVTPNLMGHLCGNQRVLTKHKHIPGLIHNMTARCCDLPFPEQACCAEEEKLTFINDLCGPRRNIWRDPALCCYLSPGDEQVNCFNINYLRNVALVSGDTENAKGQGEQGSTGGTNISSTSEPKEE
UniProt P06733: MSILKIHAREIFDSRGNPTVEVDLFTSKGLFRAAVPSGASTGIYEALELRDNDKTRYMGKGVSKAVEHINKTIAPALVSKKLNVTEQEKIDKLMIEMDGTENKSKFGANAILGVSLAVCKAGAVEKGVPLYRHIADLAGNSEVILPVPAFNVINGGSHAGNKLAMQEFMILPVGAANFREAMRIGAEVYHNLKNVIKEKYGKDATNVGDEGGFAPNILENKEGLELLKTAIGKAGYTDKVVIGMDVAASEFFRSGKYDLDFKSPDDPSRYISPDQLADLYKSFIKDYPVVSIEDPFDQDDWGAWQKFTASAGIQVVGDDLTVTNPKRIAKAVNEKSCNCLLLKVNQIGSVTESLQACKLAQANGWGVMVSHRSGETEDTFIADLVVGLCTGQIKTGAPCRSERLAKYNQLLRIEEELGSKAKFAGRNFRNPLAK

Biological target: Recombinant human ECM1 tagged with Flag (extracellular matrix protein 1) (human) (UniProt Q16610)
Test: affinity purification with mass spectrometry; ECM1-Flag added to C4-2B cells for 48 h; membrane proteins isolated; anti-Flag or anti-IgG magnetic beads overnight at 4 °C; six washes with RIPA buffer; MS; only the target purified

- binding: binds
Substance: Enolase 1 (ENO1), endogenous in C4-2B cells (from UniProt P06733 1-434) (receptor)

No constants are given. Whether binding was seen depends on the method and setting. In cells and extracts the contact can be indirect. These calls come from enrichment with a bait or labelling near it, and not all partners need be listed.
